One substance from paper PMC7265302 can be followed below.

The chains behind the UniProt entries cited, without tags or fusion partners.
UniProt Q5ZTL3: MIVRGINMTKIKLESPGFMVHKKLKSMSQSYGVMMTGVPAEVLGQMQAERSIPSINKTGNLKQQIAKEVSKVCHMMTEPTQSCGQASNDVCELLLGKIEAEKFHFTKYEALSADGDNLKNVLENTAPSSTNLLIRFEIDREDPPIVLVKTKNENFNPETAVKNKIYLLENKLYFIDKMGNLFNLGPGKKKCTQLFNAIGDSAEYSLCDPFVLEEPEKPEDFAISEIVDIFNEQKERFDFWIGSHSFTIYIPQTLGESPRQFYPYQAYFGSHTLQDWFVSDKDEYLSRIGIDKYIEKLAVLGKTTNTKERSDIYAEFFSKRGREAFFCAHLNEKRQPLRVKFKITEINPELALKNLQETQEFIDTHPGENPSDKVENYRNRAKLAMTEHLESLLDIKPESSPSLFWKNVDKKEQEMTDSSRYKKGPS
UniProt P61088: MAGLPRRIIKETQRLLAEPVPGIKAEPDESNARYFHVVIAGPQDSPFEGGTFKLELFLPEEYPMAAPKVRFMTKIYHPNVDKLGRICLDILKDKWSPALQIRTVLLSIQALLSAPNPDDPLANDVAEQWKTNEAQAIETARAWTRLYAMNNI

These are yes or no findings as the source states them, for the method shown.

The target in this test is MvcA, wild type (Legionella pneumophila) (UniProt Q5ZTL3). The test can be described thus: SEC; both purified. In general terms: SEC sorts molecules by how far they enter the pores of the column.

As for “UBE2N, free form (from UniProt P61088 1-152) (enzyme)”, the binding entry is recorded as “no binding”.
